Reference: the supplement of paper PMC6445147
Values scatter widely in this assay.

B1: human tRNA-Pro; a variant is named by its letters at N, in order (parent)
chain: GGCTCGTTGGTCTAGNGGTATGATTCTCGCTTAGGGTGCGAGAGGTCCCGGGTTCNNATCCCGGACGAGCCC

Tests used:
[1] = variants of: B1; test: tRNA Pol-III promoter activity, log2 (circRNA frequency / plasmid DNA frequency) (log2 ratio); higher = stronger promoter activity; conditions: HEK293T; construct: no Pol-II promoter ((-)CMV library)
[2] = variants of: B1; test: tRNA 3' processing efficiency (processed reads / all reads, maximum-likelihood estimate) (fraction); higher = more efficient 3' processing; conditions: HEK293T; construct: no Pol-II promoter ((-)CMV library)
[3] = variants of: B1; test: tRNA 5' processing efficiency (processed reads / all reads, maximum-likelihood estimate) (fraction); higher = more efficient 5' processing; conditions: HEK293T; construct: CMV Pol-II promoter ((+)CMV library, decapped)

| Variant | tRNA Pol-III promoter activity (log2) [1] | tRNA 3' processing efficiency [2] | tRNA 5' processing efficiency [3] |
| --- | --- | --- | --- |
| AAA T19A A58G | 3.25 | 0.4 | – |
| GAA T19A T59G | 1.04 | 0.43 | – |
| GAA T19A T59A | 2.69 | 0.08 | – |
| GAA T19A T59C | 2.41 | 0.6 | – |
| GAA T19G A20C | 2.38 | 0.5 | – |
| GAA T8C T54A | 0.934 | 0.53 | – |
| TAA T53C T59C | 6.75 | 0.29 | – |
| GAA T19C T53G A58G | 3.13 | 0.25 | – |
| TAA T8G G9C | 4.1 | 0.22 | – |
| AAA T19A T53A | 4.67 | 0.2 | – |
| GAA T8G T19G | -0.365 | 0.2 | – |
| GAA T8G T19A | -0.365 | 0.2 | – |
| TAA T53C | 0.578 | 0.4 | – |
| TAA T53G | 1.23 | 0.24 | – |
| TAA T53A | 3.44 | 0.2 | – |
| GAA T19C T53A T59A | 4.93 | 0.25 | – |
| GAA T19C T53A T59G | 3.11 | 0.22 | – |
| CAA T8C T59G | 6.2 | 0.23 | – |
| GAA T19G | -1.21 | 0.36 | 0.35 |
| GAA T19C | -1.76 | 0.59 | 0.5 |
| GAA T19A | -0.92 | 0.28 | 0.21 |
| GAA T8G T19C A58G | 4.72 | 0.67 | – |
| GAA T19A A58C T59C | 3.93 | 0.25 | – |

| Variant | tRNA Pol-III promoter activity (log2) [1] | tRNA 3' processing efficiency [2] | tRNA 5' processing efficiency [3] |
| --- | --- | --- | --- |
| GAA T19A C55T | -0.963 | 0.25 | – |
| GAA T19A T53C A58T | 2.16 | 0.57 | – |
| GAA T53A T54A | -0.547 | 0.25 | 0.25 |
| GAA T19G A58G T59A | 4.67 | 0.2 | – |
| GAA T19G A58G T59G | 7.2 | 0.11 | – |
| TAA T19C T59G | 6.94 | 0.62 | – |
| TAA T19A T53A | 3.46 | 0.25 | – |
| GAA T53A T59A | 1.98 | 0.22 | 0.44 |
| GAA T53A T59C | 3.69 | 0.27 | – |
| GAA T53A T59G | 0.72 | 0.34 | – |
| GAA T53A A58C | -0.0718 | 0.5 | – |
| GAA T53A A58G | 1.7 | 0.43 | – |
| GAA T53A A58T | 0.621 | 0.4 | – |
| AAA T19A C55T A58T | 6.64 | 0.15 | – |
| GAA T19A T53G T59C | 3.93 | 0.25 | – |
| TAA T53A T59G | 5.53 | 0.67 | – |
| GAA T19G A58T T59C | 3.45 | 0.17 | – |
| GAA T8G A58G T59C | 4.15 | 0.29 | – |
| GAA T8G G15C T53G | 3.36 | 0.4 | – |
| CAA T53A T59A | 3.5 | 0.56 | 0.22 |
| TAA T19A T54G | 3.94 | 0.62 | – |
| GAA T53C T59C | 2.3 | 0.45 | – |
| AAA T19G A58G T59G | 5.74 | 0.32 | – |

| Variant | tRNA Pol-III promoter activity (log2) [1] | tRNA 3' processing efficiency [2] | tRNA 5' processing efficiency [3] |
| --- | --- | --- | --- |
| AAA T19C C55T | 3.12 | 0.25 | – |
| GAA T8G A14C G18A C55T | 6.62 | 0.17 | – |
| GAA T19A A20T A58T | 5.07 | 0.31 | – |
| GAA T19A A20T A58G | 2.24 | 0.25 | – |
| TAA T19G T59G | 4.58 | 0.57 | – |
| TAA T19G T59C | 3.13 | 0.25 | – |
| GAA T19C T54A | 1.02 | 0.2 | – |
| GAA T54A | 0.713 | 0.36 | 0.29 |
| AAA T19A A20G | 4.03 | 0.7 | – |
| GAA T54A A58C | 0.781 | 0.57 | 0.83 |
| GAA T8G G15T | 0.384 | 0.67 | – |
| GAA T8G G15C | -0.307 | 0.35 | – |
| GAA T8G G15T A58G | 2.36 | 0.5 | – |
| GAA T19C T53A A58T | 3.94 | 0.4 | – |
| TAA T54A A58C | 4.03 | 0.25 | – |
| CAA T8C T54A | 3.67 | 0.4 | – |
| GAA T19C C55G | 1.19 | 0.4 | – |
| GAA T19C C55T | -0.408 | 0.4 | – |
| CAA T19C T54A | 4.67 | 0.4 | – |
| AAA T8G T53A | 2.9 | 0.4 | – |
| AAA T8G T53C | 5.74 | 0.29 | – |
| GAA T8G T54G A58T | 2.43 | 0.17 | – |
| GAA T19A A20G T59G | 4.03 | 0.25 | – |

Part of the list above, tab-delimited.
Variant	tRNA Pol-III promoter activity (log2) [1]	tRNA 3' processing efficiency [2]	tRNA 5' processing efficiency [3]
GAA T54A A58C	0.781	0.57	0.83
GAA T8G G15T	0.384	0.67	–

Pulled one by one from the list above, 3 records:

| Variant | tRNA Pol-III promoter activity (log2) [1] | tRNA 3' processing efficiency [2] | tRNA 5' processing efficiency [3] |
| --- | --- | --- | --- |
| AAA T19C C55T | 3.12 | 0.25 | – |
| GAA T19C T54A | 1.02 | 0.2 | – |
| CAA T19C T54A | 4.67 | 0.4 | – |

Additional entries follow.

| Variant | tRNA Pol-III promoter activity (log2) [1] | tRNA 3' processing efficiency [2] | tRNA 5' processing efficiency [3] |
| --- | --- | --- | --- |
| GAA T19G T59C | 1.54 | 0.33 | – |
| GAA T19G T59G | 2.01 | 0.18 | – |
| GAA T19G T59A | 2.54 | 0.74 | – |
| GAA T8G G15C T59A | 4.21 | 0.42 | – |
| GAA T19A T53G A58G | 4.36 | 0.25 | – |
| GAA T19A T53G A58T | 1.68 | 0.25 | – |
| AAA T19A | 0.25 | 0.2 | – |
| AAA T19G | 0.92 | 0.58 | – |
| GAA T19A A20G A41T T53A T54A | 4.68 | 0.8 | – |
| TAA T19C T54A | 4.51 | 0.67 | – |
| GAA T19C T53C | 2.9 | 0.74 | – |
| GAA T19C T53G | 0.0703 | 0.25 | – |
| GAA T19C T53A | 1.73 | 0.41 | – |
| TAA T8G G15T A20T T59C | 3.93 | 0.33 | – |
| GAA T19G T53A T59A | 6.51 | 0.5 | – |
| CAA T19G C55T | 2.51 | 0.33 | – |
| GAA T53G A58G T59A | 5.77 | 0.26 | – |
| GAA T8G G15A T53C | 3.67 | 0.57 | – |
| CAA T53A A58C | 3.94 | 0.25 | – |
| GAA T8G A58C | -0.57 | 0.4 | – |
| GAA T8G A58G | 1.34 | 0.07 | 0.2 |
| GAA T19A T53A | 2.21 | 0.26 | 0.33 |
| GAA T19A T53G | 0.674 | 0.35 | – |

| Variant | tRNA Pol-III promoter activity (log2) [1] | tRNA 3' processing efficiency [2] | tRNA 5' processing efficiency [3] |
| --- | --- | --- | --- |
| GAA T19A T53C | 1.5 | 0.48 | – |
| GAA T8G | -3.79 | 0.28 | 0.24 |
| GAA T53C A58T | 0.432 | 0.29 | 0.14 |
| GAA T53C A58G | 0.323 | 0.5 | – |
| TAA T19A | 0.0813 | 0.49 | – |
| TAA T19G | 1.82 | 0.43 | – |
| CAA T19G T53C | 3.45 | 0.75 | – |
| GAA T53G C55T | 0.135 | 0.71 | – |
| GAA T8G A14G | 0.425 | 0.81 | – |
| AAA T19C T53C | 4.67 | 0.4 | – |
| GAA T19A A20T | 1.1 | 0.56 | – |
| GAA T8G G15T G17T | 4.62 | 0.22 | – |
| GAA T8G G15T T53A A58C T59A | 5.16 | 0.71 | – |
| AAA T53G A58G | 4.97 | 0.06 | – |
| TAA T53A A58C | 4.04 | 0.71 | – |
| TAA T53A A58T | 3.45 | 0.3 | – |
| TAA T53A A58G | 5.53 | 0.52 | – |
| AAA T53A A58T | 3.62 | 0.25 | – |
| AAA T53A A58G | 7.08 | 0.86 | – |
| GAA T32C T59C | 6.03 | 0.5 | – |
